PubChem BioAssay AID652243 – Drosophila RNAi Screening Center – 2013

- Aim: 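Fly regulators of androgen-dependent reporter output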 (primary screen)
- System: Drosophila S2R+ cells
- Reagents: long dsRNA against Drosophila genes
- Time to read-out: 72 h (48 h, then 24 h hormone)
- Challenge: synthetic androgen R1881 at 10 nM for 24 h
- Measured: 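Per-well raw luminescence of the androgen-driven firefly reporter and of the Renilla control, two replicates each, without normalisation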
- Direction: firefly reporter light: higher = more light from androgen-responsive reporter; Renilla control light: higher = more constitutive control signal (cell number, transfection)
- Call rule: 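Hit when the log firefly-to-Renilla ratio dropped or increased by a fixed fold versus the mean of GFP or LacZ controls across duplicate plates; lowering cut given as 1.5 and as 3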
- Meaning of the calls: active = hit: reporter lowered or raised; inactive = no hit
The screen tested about 24,000 reagents; this is a random part of those with a known target gene and a result. Of all reagents, 246 (1%) got an active call. 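Plates not normalised; calls are printed but the firefly/Renilla ratio behind them is not deposited; fold cut for lowering reported inconsistently.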 Raw values vary from plate to plate and are shown uncorrected. Names joined by + are all predicted targets of the reagent. Reagent sequences are not shown. The record does not give: the amount of reagent.

| Target gene | amplicon | firefly reporter light, replicate 1 | firefly reporter light, replicate 2 | Renilla control light, replicate 1 | Renilla control light, replicate 2 | Outcome |
| --- | --- | --- | --- | --- | --- | --- |
| CG13247 | DRSC11695 | 2.78e5 | 2.54e5 | 3.06e6 | 1.87e6 | inactive |
| CG15322 | DRSC20680 | 35810 | 39282 | 1.13e5 | 82263 | inactive |
| CG15322 | DRSC23023 | 8.86e5 | 9.17e5 | 1.17e6 | 1.68e6 | inactive |
| Ccp84Ag | DRSC12592 | 89164 | 1.37e5 | 2.29e6 | 2.10e6 | inactive |
| Ccp84Ag | DRSC22085 | 5.41e5 | 4.67e5 | 1.41e6 | 1.24e6 | inactive |
| Ccp84Ag | DRSC30073 | 8.95e5 | 1.08e6 | 1.53e6 | 1.51e6 | inactive |
| TTLL4B | DRSC00636 | 1.01e6 | 1.03e6 | 1.37e6 | 1.36e6 | inactive |
| TTLL4B | DRSC28854 | 7.44e5 | 8.86e5 | 1.40e6 | 1.62e6 | inactive |
| Cnx99A + Cnx14D | DRSC16610 | 1.93e5 | 1.44e5 | 1.95e6 | 2.98e6 | inactive |
| Mtpbeta | DRSC04663 | 4.72e5 | 1.06e6 | 9.56e5 | 1.59e6 | inactive |
| CG11555 | DRSC00315 | 1.07e5 | 1.48e5 | 6.84e5 | 9.80e5 | inactive |
| CG11555 | DRSC24179 | 1.02e6 | 1.16e6 | 1.29e6 | 9.78e5 | inactive |
| CycC | DRSC16619 | 83053 | 73421 | 6.70e5 | 8.04e5 | inactive |
| CycC | DRSC36640 | – | – | – | – | inactive |
| ND-PDSW | DRSC00715 | 1.05e6 | 1.17e6 | 1.33e6 | 1.37e6 | inactive |
| CG4789 | DRSC19918 | 6.43e5 | 3.25e5 | 3.94e6 | 2.40e6 | inactive |
| iPLA2-VIA | DRSC10699 | 9.80e5 | 9.80e5 | 1.48e6 | 1.87e6 | inactive |
| Dhc36C | DRSC03315 | 1.49e5 | 1.91e5 | 1.94e6 | 2.25e6 | inactive |
| Pde11 | DRSC02028 | 4.52e5 | 6.00e5 | 2.56e6 | 3.51e6 | inactive |
| Pde11 | DRSC02460 | 41347 | 51187 | 1.42e6 | 1.40e6 | active |
| Pde11 | DRSC26665 | 2.74e5 | 2.05e5 | 5.10e5 | 3.65e5 | inactive |
| CG12128 | DRSC06104 | 1.12e6 | 1.07e6 | 2.27e6 | 2.59e6 | inactive |
| CG12128 | DRSC29958 | 8.60e5 | 7.70e5 | 1.08e6 | 1.31e6 | inactive |
| CR6900 | DRSC20018 | 4.64e5 | 1.47e5 | 1.36e6 | 5.18e5 | inactive |

Sorted by “firefly reporter light, replicate 2” (low to high): 2 of the entries above.
| Target gene | amplicon | firefly reporter light, replicate 1 | firefly reporter light, replicate 2 | Renilla control light, replicate 1 | Renilla control light, replicate 2 | Outcome |
| --- | --- | --- | --- | --- | --- | --- |
| TTLL4B | DRSC28854 | 7.44e5 | 8.86e5 | 1.40e6 | 1.62e6 | inactive |
| TTLL4B | DRSC00636 | 1.01e6 | 1.03e6 | 1.37e6 | 1.36e6 | inactive |
